Not every detail of the peptide structures is certain; ends, links or a residue may be inferred. Residues, ends and D or L forms follow the SMILES beside them.
Legend:
PKG Iα = molecular target: T1, PKG Iα (Bos taurus, UniProt P00516); assay: 32P-incorporation assay, activation of PKG Iα by SW peptides; format: biochemical; conditions: for activation of PKG: in vitro
T1 construct: made in house
T1 sequence (P00516 1-671): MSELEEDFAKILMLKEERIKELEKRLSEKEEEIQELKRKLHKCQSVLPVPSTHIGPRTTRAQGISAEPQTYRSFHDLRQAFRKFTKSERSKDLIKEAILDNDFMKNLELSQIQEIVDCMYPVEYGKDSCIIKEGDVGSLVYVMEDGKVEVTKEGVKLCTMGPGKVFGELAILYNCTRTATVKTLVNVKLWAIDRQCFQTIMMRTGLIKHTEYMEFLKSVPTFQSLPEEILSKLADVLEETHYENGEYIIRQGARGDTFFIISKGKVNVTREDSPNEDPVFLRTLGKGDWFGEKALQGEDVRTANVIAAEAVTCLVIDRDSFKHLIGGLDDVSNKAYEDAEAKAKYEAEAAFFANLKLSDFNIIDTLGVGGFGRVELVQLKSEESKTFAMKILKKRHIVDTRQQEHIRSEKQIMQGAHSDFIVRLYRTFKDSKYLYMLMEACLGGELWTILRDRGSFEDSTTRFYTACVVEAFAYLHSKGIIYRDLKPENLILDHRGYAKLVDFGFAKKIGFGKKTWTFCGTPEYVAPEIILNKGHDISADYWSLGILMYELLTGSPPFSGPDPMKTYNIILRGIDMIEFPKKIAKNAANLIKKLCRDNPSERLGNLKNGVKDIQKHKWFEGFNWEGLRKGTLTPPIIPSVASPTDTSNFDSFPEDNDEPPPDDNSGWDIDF
Description: Starting with the 29-mer peptide (329-358), covering the full length of the switch helix, an array of peptide derivatives were synthesized to study the contributions from different segments of the SW helix peptide towards the functional phenotype of PKG Iα. Circular dichroism spectroscopy confirmed that the 29-mer SW peptide adopted a helical secondary structure. […] The activity of this short peptide is surprising. To activate the kinase, this non-helical 8-mer peptide first has to adopt the active helical conformation to activate PKG. However, this finding provides critical support in favor that the confined knob/nest interaction site may serve as a novel target site for non-cyclic nucleotide driven activation of PKG.
The isolation of the SW independent from the kinase allows us to discretely probe the nest in future studies using native and non-native amino acids. Moreover, the use of the SW: 329-358 allows us to answer more fundamental questions about the nature of the regulatory and catalytic domains and the communication between the B-site and the nest. […] The structure of this inhibitor contains a β-phenyl-1,N^2-etheno group attached to the pyrimidine ring. We hypothesized previously, based upon structural observations, that the presence of this phenyl group in the syn orientation effectively blocks PBC closure and reduces the potency of the SW:329-358 in a dose-dependent manner.
Determination of activation constants was performed using a [γ-^32P]-ATP transfer assay as previously reported (Ruth et al., 1991; Tegge et al., 1995). […] Aliquots, spotted on P81 Whatman paper were subjected to scintillation counting. All experiments were performed in the presence of the PKA-specific inhibitor, PKI^5-24 (70 nM) to suppress endogenous PKA activity.

wild-type PKG Ia = molecular target: T2, wild-type PKG Ia (Bos taurus, UniProt P00516); assay: Surface-plasmon-resonance binding of SW peptides to wild-type PKG Iα
T2 construct: made in house
T2 sequence (P00516 1-671): T1 sequence (P00516 1-671)

| SMILES | Ka, activation of PKG Iα (PKG Iα; kinase primed with 100 nM cGMP) [µM] | binding to wild-type PKG Ia by surface-plasmon-resonance (wild-type PKG Ia) | activation of PKG (PKG Iα) | shift in the SW329-358 mediated activation profile of PKG Iα (PKG Iα; priming with 100 nM cGMP vs no priming) [fold] | Ka, activation of PKG Ia (PKG Iα; without cGMP priming) [µM] | Ka, activation of PKG (PKG Iα; 8-mer knob peptide, priming condition not stated) [µM] |
| --- | --- | --- | --- | --- | --- | --- |
| CC(C)C[C@H](NC(=O)[C@H](CC(N)=O)NC(=O)[C@H](C)NC(=O)[C@H](Cc1ccccc1)NC(=O)[C@H](Cc1ccccc1)NC(=O)[C@H](C)NC(=O)[C@H](C)NC(=O)[C@H](CCC(=O)O)NC(=O)[C@H](C)NC(=O)[C@H](CCC(=O)O)NC(=O)[C@H](Cc1ccc(O)cc1)NC(=O)[C@H](CCCCN)NC(=O)[C@H](C)NC(=O)[C@H](CCCCN)NC(=O)[C@H](C)NC(=O)[C@H](CCC(=O)O)NC(=O)[C@H](C)NC(=O)[C@H](CC(=O)O)NC(=O)[C@H](CCC(=O)O)NC(=O)[C@H](Cc1ccc(O)cc1)NC(=O)[C@H](C)NC(=O)[C@H](CCCCN)NC(=O)[C@H](CC(N)=O)NC(=O)[C@H](CO)NC(=O)[C@@H](NC(=O)[C@@H](N)CC(=O)O)C(C)C)C(=O)N[C@@H](CCCCN)C(=O)O [SW:329-355] (H-DVSNKAYEDAEAKAKYEAEAAFFANLK-OH; N-terminus and C-terminus assumed) | 500 | – | – | – | – | – |
| CC(C)C[C@H](NC(=O)[C@H](CC(N)=O)NC(=O)[C@H](C)NC(=O)[C@H](Cc1ccccc1)NC(=O)[C@H](Cc1ccccc1)NC(=O)[C@H](C)NC(=O)[C@H](C)NC(=O)[C@H](CCC(=O)O)NC(=O)[C@H](C)NC(=O)[C@H](CCC(=O)O)NC(=O)[C@H](Cc1ccc(O)cc1)NC(=O)[C@H](CCCCN)NC(=O)[C@H](C)NC(=O)[C@H](CCCCN)NC(=O)[C@H](C)NC(=O)[C@H](CCC(=O)O)NC(=O)[C@H](C)NC(=O)[C@H](CC(=O)O)NC(=O)[C@H](CCC(=O)O)NC(=O)[C@H](Cc1ccc(O)cc1)NC(=O)[C@H](C)NC(=O)[C@H](CCCCN)NC(=O)[C@H](CC(N)=O)NC(=O)[C@H](CO)NC(=O)[C@@H](NC(=O)[C@@H](N)CC(=O)O)C(C)C)C(=O)N[C@@H](CCCCN)C(=O)N[C@@H](CC(C)C)C(=O)N[C@@H](CO)C(=O)N[C@@H](CC(=O)O)C(=O)O [SW:329-358] (H-DVSNKAYEDAEAKAKYEAEAAFFANLKLSD-OH; N-terminus and C-terminus assumed) | – | Reversible binding | activates PHG Iα in vitro | 20 | 500 | – |
| CC(C)C[C@H](NC(=O)[C@H](CC(N)=O)NC(=O)[C@H](C)NC(=O)[C@H](Cc1ccccc1)NC(=O)[C@H](Cc1ccccc1)NC(=O)[C@H](C)NC(=O)[C@H](C)N)C(=O)N[C@@H](CCCCN)C(=O)O [SW:348-355] (H-AAFFANLK-OH; N-terminus and C-terminus assumed) | – | – | sufficient to activate PKG | – | – | 500 |

Reference: patent publication US9260486B2 (The University of Vermont and State Agricultural College, priority 2012, dated 2016)
